Measured values taken from PMC12229684.
No constants are given. Whether binding was seen depends on the method and setting. Binding seen in cells or lysates may run through a third protein. Some binding calls cover weakened binding; strength is not graded here. Sequences can lack the tags named with a protein.

Biological target: T1, epidermal growth factor latrophilin and seven transmembrane domain-containing protein 1 (ELTD1), Flag-tagged (human) (UniProt Q9HBW9)
T1 sequence: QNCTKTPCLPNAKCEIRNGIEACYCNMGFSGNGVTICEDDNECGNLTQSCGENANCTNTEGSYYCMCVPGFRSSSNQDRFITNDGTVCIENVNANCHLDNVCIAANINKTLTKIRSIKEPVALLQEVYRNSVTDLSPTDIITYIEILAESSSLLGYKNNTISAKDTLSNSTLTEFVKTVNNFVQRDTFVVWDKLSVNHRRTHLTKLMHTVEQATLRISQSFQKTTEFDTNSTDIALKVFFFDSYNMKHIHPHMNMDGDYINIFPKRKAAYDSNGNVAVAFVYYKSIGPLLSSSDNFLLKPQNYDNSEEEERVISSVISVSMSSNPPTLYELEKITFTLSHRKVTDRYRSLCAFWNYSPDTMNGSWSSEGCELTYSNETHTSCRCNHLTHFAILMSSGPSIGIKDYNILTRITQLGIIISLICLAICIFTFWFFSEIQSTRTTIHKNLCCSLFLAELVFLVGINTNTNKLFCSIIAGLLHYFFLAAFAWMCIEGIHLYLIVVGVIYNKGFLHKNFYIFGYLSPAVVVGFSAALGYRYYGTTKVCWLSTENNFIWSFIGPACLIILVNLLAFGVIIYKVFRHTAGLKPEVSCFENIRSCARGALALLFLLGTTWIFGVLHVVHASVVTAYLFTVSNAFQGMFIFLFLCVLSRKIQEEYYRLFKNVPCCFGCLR
Assay: co-IP; lysate in GPCR extraction and stabilization reagent with protease inhibitors, anti-Flag M2 magnetic beads at 4 °C overnight, washed with TBS, western blotting

- binding: binds
B1: HPIP (hematopoietic PBX1-interacting protein) (protein, UniProt Q96AQ6 1-731)
chain: MASCPDSDNSWVLAGSESLPVETLGPASRMDPESERALQAPHSPSKTDGKELAGTMDGEGTLFQTESPQSGSILTEETEVKGTLEGDVCGVEPPGPGDTVVQGDLQETTVVTGLGPDTQDLEGQSPPQSLPSTPKAAWIREEGRCSSSDDDTDVDMEGLRRRRGREAGPPQPMVPLAVENQAGGEGAGGELGISLNMCLLGALVLLGLGVLLFSGGLSESETGPMEEVERQVLPDPEVLEAVGDRQDGLREQLQAPVPPDSVPSLQNMGLLLDKLAKENQDIRLLQAQLQAQKEELQSLMHQPKGLEEENAQLRGALQQGEAFQRALESELQQLRARLQGLEADCVRGPDGVCLSGGRGPQGDKAIREQGPREQEPELSFLKQKEQLEAEAQALRQELERQRRLLGSVQQDLERSLQDASRGDPAHAGLAELGHRLAQKLQGLENWGQDPGVSANASKAWHQKSHFQNSREWSGKEKWWDGQRDRKAEHWKHKKEESGRERKKNWGGQEDREPAGRWKEGRPRVEESGSKKEGKRQGPKEPPRKSGSFHSSGEKQKQPRWREGTKDSHDPLPSWAELLRPKYRAPQGCSGVDECARQEGLTFFGTELAPVRQQELASLLRTYLARLPWAGQLTKELPLSPAFFGEDGIFRHDRLRFRDFVDALEDSLEEVAVQQTGDDDEVDDFEDFIFSHFFGDKALKKRSGKKDKHSQSPRAAGPREGHSHSHHHHHRG
